Earlier results, collected in US8748421B2, “Triazine compounds as P13 kinase and MTOR inhibitors” (Wyeth LLC, priority 2009, dated 2014).
For at least one compound, name, drawing or mass did not settle the structure.

System: mouse cancer models of prostrate, breast, ovarian, lung, multiple myeloma, and brain cancers
Conditions: cited from earlier work

For `N=C(N)NCCC[C@H](NC(=O)CCC(=O)OC[N+]1(c2cc(=O)c3cccc(-c4ccccc4)c3o2)CCOCC1)C(=O)NCC(=O)N[C@@H](CC(=O)O)C(=O)N[C@@H](CO)C(=O)[O-]` [SF-1126], which “activity in preclinical mouse cancer models” value is on record?
Its value is “active”.
